This note sets out measurements from article PMC5052687.

Chains of the proteins cited; added tags and fusions are not shown. Residues count along the entry.
UniProt P16671, residues 35-439: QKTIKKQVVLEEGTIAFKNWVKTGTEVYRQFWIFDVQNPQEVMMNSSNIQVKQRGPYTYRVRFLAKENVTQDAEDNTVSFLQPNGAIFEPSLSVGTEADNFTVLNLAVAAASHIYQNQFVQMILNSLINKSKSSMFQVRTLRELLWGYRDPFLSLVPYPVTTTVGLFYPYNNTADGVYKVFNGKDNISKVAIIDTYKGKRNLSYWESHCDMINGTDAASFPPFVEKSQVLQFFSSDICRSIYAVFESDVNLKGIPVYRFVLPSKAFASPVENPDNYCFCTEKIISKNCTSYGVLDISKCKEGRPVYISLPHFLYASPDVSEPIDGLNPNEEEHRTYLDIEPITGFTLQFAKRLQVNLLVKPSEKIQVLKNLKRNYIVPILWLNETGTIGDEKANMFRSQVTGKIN
UniProt P07996, residues 19-1170: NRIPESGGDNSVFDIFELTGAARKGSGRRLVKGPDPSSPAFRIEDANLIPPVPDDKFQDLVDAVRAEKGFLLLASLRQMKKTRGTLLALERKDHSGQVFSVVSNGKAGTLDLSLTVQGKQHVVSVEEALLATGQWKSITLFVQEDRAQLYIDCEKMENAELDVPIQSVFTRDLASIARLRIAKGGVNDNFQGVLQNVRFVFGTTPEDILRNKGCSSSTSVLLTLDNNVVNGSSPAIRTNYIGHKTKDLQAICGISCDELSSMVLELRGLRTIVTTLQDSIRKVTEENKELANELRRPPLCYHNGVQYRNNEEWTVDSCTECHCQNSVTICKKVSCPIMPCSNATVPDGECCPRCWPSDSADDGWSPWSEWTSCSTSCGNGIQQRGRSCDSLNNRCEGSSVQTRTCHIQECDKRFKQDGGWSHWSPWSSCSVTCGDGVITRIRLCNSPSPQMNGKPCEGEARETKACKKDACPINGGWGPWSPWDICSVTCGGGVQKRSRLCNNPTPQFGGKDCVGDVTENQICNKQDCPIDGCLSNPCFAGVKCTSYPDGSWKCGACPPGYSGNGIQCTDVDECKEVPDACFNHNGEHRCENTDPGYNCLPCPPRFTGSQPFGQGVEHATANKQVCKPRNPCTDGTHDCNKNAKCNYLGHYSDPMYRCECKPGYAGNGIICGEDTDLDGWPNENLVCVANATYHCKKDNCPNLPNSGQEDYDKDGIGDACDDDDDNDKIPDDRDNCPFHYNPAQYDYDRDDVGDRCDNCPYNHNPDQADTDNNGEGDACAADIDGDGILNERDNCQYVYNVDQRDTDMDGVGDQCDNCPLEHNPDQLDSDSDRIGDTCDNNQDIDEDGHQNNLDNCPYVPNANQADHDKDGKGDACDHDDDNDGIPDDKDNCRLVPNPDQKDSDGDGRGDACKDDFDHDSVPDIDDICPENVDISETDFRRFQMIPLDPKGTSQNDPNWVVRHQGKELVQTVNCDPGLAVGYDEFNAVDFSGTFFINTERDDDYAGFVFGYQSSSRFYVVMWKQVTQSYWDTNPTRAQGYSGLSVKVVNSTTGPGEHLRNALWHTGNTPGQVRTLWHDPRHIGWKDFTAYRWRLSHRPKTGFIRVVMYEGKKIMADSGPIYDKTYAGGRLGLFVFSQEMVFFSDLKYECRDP

For this assay, the target named is human CD36 ectodomain (residues 35-439) with C-terminal BAP tag, biotinylated (human) (UniProt P16671). The assay can be described thus: SPR; competition: biotinylated CD36 immobilised on CAPture chip; CIDRα protein injected with 500 s association time, followed by 400 nM thrombospondin-1; 25 °C, 20 mM HEPES pH 7.5, 0.15 M NaCl, 0.005% Tween20; both purified. A general note: In SPR one partner is held on a chip, and binding of the other changes the refractive index at the surface.

No constants are given. Whether binding was seen depends on the method and setting. Some results given as binding are weak or reduced against the parent protein; the word gives no strength.

Turning to “Recombinant Human Thrombospondin-1 (from UniProt P07996 19-1170) (ligand)”, the binding result was “binds”.
